Publication PMC8315068
No constants are given. Whether binding was seen depends on the method and setting. In cells and extracts the contact can be indirect. A yes stands for co-enrichment or nearness to the bait. Other partners may have been found.

Protein sequences, listed by entry. Tags and fused reporters are not part of them.
UniProt Q15672: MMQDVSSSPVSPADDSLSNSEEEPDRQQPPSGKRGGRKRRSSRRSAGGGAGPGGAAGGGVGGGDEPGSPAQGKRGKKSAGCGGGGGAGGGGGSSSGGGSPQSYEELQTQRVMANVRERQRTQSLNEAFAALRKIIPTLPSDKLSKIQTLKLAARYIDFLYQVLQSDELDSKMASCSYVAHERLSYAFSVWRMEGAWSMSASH
UniProt P40763: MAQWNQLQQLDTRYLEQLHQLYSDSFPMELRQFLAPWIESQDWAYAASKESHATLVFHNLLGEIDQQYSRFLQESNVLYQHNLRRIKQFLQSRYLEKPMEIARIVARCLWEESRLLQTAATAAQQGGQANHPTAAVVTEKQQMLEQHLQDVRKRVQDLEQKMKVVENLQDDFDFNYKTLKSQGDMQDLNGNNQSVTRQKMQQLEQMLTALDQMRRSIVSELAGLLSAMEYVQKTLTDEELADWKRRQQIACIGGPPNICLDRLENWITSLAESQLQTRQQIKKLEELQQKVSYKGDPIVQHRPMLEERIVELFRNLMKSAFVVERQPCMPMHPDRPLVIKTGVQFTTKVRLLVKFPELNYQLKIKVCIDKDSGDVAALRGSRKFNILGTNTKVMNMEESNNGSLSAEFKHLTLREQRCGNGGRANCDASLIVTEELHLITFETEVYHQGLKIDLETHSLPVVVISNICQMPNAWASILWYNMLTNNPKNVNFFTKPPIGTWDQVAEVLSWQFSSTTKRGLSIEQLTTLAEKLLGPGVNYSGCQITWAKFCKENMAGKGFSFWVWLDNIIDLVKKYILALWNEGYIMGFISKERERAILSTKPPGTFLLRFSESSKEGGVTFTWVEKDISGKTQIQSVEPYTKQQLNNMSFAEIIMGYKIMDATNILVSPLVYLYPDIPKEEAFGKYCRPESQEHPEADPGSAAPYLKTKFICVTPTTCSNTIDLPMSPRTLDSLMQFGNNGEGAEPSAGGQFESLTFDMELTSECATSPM
UniProt P04150: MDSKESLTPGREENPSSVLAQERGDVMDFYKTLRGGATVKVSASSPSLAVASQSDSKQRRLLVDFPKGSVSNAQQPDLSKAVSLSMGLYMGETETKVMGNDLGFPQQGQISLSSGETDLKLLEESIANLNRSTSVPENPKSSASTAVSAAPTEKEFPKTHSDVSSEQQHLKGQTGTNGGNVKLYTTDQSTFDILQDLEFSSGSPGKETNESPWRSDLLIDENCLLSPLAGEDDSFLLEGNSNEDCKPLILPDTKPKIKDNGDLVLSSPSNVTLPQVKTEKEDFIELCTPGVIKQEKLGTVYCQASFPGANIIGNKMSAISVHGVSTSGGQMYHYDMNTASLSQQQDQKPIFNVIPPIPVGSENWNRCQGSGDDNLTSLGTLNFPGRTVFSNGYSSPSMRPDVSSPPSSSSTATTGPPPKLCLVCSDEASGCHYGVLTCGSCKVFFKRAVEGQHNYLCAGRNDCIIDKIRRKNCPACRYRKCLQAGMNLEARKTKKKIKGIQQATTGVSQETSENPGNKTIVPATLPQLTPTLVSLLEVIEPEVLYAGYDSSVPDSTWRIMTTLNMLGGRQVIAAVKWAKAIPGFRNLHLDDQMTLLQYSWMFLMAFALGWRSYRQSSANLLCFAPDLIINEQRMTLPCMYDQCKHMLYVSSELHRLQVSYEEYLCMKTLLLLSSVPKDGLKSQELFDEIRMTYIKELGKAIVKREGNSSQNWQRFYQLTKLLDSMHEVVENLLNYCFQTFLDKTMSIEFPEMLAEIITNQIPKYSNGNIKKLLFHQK

What was measured:
[1] = target: Twist1 protein (TW1), endogenous in cells isolated from human colon tissue (human (endogenous in colon tissue cells of patients)) (UniProt Q15672); experiment: affinity purification with mass spectrometry; immunoprecipitation with an anti-TW1 Ab as bait from protein extracts of colon neutrophils of CR and CS UC patients; precipitated complexes analysed by MS
[2] = target: STAT3 (Signal Transducer and Activator of Transcription-3), endogenous in human colon neutrophils (human (endogenous in colon neutrophils of UC patients)) (UniProt P40763); experiment: affinity purification with mass spectrometry; anti-STAT3 Ab as bait, protein extracts of colon neutrophils of UC patients with CR; precipitated proteins analysed by MS

Row | binding [1] | binding [2] | Molecule
1 | binds | – | glucocorticoid receptor (GR)α, endogenous in cells isolated from human colon tissue (from UniProt P04150 1-777)
2 | – | binds | Ras Protein Activator Like 1 (RASAL1), endogenous in human colon neutrophils (protein, UniProt O95294 1-804) MAKSSSLNVRVVEGRALPAKDVSGSSDPYCLVKVDDEVVARTATVWRSLGPFWGEEYTVHLPLDFHQLAFYVLDEDTVGHDDIIGKISLSREAITADPRGIDSWINLSRVDPDAEVQGEICLSVQMLEDGQGRCLRCHVLQARDLAPRDISGTSDPFARVFWGSQSLETSTIKKTRFPHWDEVLELREMPGAPSPLRVELWDWDMVGKNDFLGMVEFSPKTLQQKPPKGWFRLLPFPRAEEDSGGNLGALRVKVRLIEDRVLPSQCYQPLMELLMESVQGPAEEDTASPLALLEELTLGDCRQDLATKLVKLFLGRGLAGRFLDYLTRREVARTMDPNTLFRSNSLASKSMEQFMKLVGMPYLHEVLKPVISRVFEEKKYMELDPCKMDLGRTRRISFKGALSEEQMRETSLGLLTGYLGPIVDAIVGSVGRCPPAMRLAFKQLHRRVEERFPQAEHQDVKYLAISGFLFLRFFAPAILTPKLFDLRDQHADPQTSRSLLLLAKAVQSIGNLGQQLGQGKELWMAPLHPFLLQCVSRVRDFLDRLVDVDGDEAGVPARALFPPSAIVREGYLLKRKEEPAGLATRFAFKKRYVWLSGETLSFSKSPEWQMCHSIPVSHIRAVERVDEGAFQLPHVMQVVTQDGTGALHTTYLQCKNVNELNQWLSALRKASAPNPNKLAACHPGAFRSARWTCCLQAERSAAGCSRTHSAVTLGDWSDPLDPDAEAQTVYRQLLLGRDQLRLKLLEDSNMDTTLEADTGACPEVLARQRAATARLLEVLADLDRAHEEFQQQERGKAALGPLGP
